Measurements as given in PubChem BioAssay AID2685 (National Center for Advancing Translational Sciences (NCATS), 2010).
The other results are listed elsewhere or left out. The main result of the screen is listed elsewhere. These columns were measured beside it and carry no call. Most of these compounds were active or inconclusive in the main read-out, so they are no random draw. Words in brackets tell the shape of the fitted curve; partial curves, single points and poor fits give uncertain potencies.

Assay: qHTS Assay for Lipid Storage Modulators in Drosophila S3 Cells;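 on cell number change: cells counted by Cell Tracker Red CMTPX staining in the red channel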
Settings: BODIPY lipid droplet fluorescence, 18-24 h; for cell number change: measured here: cell count max response, cells fed with added oleic acid
Outline: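 Drosophila S3 cells loaded with oleic acid (400 uM, as added) and compounds at several concentrations; lipid droplets imaged by 488-nm laser-scanning cytometry, 500–530 nm intensity and object ratio to cell channel. Percent activity normalized to 20 uM Triacsin C.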

[1] = measured here: lipid fluorescence (Fed channel) AC50, cells fed with added oleic acid
[2] = measured here: cell number channel AC50, cells fed with added oleic acid

Compound | cell number change [%] | AC50 [1] | AC50 [2]
COc1ccc(C2=NN(C(=O)CN3CCCC3)C(c3ccc(OC)cc3)C2)cc1 (configuration not stated) | -12.9 | 0.103 µM [falling, full curve, poor fit] | –
Cc1ccccc1CSCc1nc(N)nc(Nc2ccccc2C)n1 | – | – | 0.58 µM [rising, single point]
CC1NC(=O)NC1CCCCC(=O)O (configuration not stated) | -15.4 | 1.64 µM [falling, full curve] | –
c1ccc2c(c1)CCCC2C1=NCCN1 (configuration not stated) | 2.35 | 3.66 µM [falling, full curve, poor fit] | –
Cc1onc(-c2ccccc2)c1C(=O)Nc1nc2c(s1)CCCC2 | 2.5 | – | –
CCCCNC(=O)CCSc1ccc(C)cc1 | 14 | 16.4 µM [rising, partial curve, poor fit] | –
CC(NC(=O)c1ccnn1C)C1CCCO1 (configuration not stated) | 13.1 | – | 3.66 µM [falling, single point]
CC(C)C(C(=O)NCc1ccccc1)N(CC1CCCO1)C(=O)CNS(=O)(=O)c1ccccc1 (configuration not stated) | -12.2 | 29.1 µM [rising, single point] | –
Cc1ccc(S(=O)(=O)Nc2nc(C)cc(NCCN)n2)cc1 | -0.143 | 29.1 µM [falling, single point] | –
COC(=O)C1=C(CSc2nncn2C)NC(=O)NC1c1ccc(F)cc1 (configuration not stated) | -23.6 | 1.3 µM [falling, full curve, poor fit] | –
CC1CC(C)CN(C(=O)COC(=O)C2CCN(S(=O)(=O)c3ccc4c(c3)OCCO4)CC2)C1 (configuration not stated) | 21.4 | 0.103 µM [falling, full curve, poor fit] | –
COCCSc1nnc(NC(=O)C2CC(=O)N(c3ccccc3)C2)s1 (configuration not stated) | -27 | 3.26 µM [falling, single point] | 3.26 µM [falling, full curve, poor fit]
Cc1c(CN2CCN(c3cccc(C(F)(F)F)c3)CC2)c(=O)n(-c2ccccc2)n1C | -9.55 | – | –
Cc1ccc(S(=O)(=O)N2CCOCC2)cc1C(=O)OCC(=O)Nc1ccc2c(c1)OCO2 | 0.829 | – | –
Cc1ccc(-n2[nH]c(C)c(/C=N/NC(=O)c3ccc([N+](=O)[O-])cc3)c2=O)c(C)c1 | – | 6.51 µM [rising, single point] | –
CC(C)CC(=O)N/C(N)=N/c1nc2ccccc2s1 | -16.1 | 3.66 µM [rising, single point] | –
COc1ccc2oc(C(=O)N(C)Cc3ccc(OC(F)F)cc3)c(C)c2c1 | 14.2 | – | –
CNS(=O)(=O)c1cccc(C(=O)OCC(=O)N2CCc3ccccc3C2)c1 | 0.144 | 0.082 µM [falling, full curve] | –
COc1cccc(-c2cc(C(=O)Nc3cnn(Cc4ccccc4C)c3)no2)c1 | -29.7 | – | 0.0058 µM [falling, full curve, poor fit]
O=C(COC(=O)CCNS(=O)(=O)c1ccccc1)NNC(=O)c1ccccc1 | -14.5 | – | –
CCOC(=O)C(C)Oc1cccc2c(=O)n(CC(=O)Nc3ccc(OCC)cc3)ccc12 (configuration not stated) | 60.7 | 7.31 µM [rising, partial curve] | 13 µM [rising, partial curve]

Compound | cell number change [%] | AC50 [1] | AC50 [2]
CC(O)CNC(=O)c1ccc(-c2nn(C)c(=O)c3ccccc23)cc1 (configuration not stated) | 9.29 | 29.1 µM [rising, single point] | –
CC(Sc1nnc(C2CC2)n1C1CC1)C(=O)Nc1ccccc1C#N (configuration not stated) | 13.1 | 0.517 µM [rising, full curve] | –
O=C(CSc1nccn1-c1ncc(C(F)(F)F)cc1Cl)c1ccc(Cl)cc1 | -20.9 | – | –
CC(C)n1cnc2c(Nc3cccc(F)c3)nc(NCCO)nc21 | – | 0.00461 µM [rising, full curve, poor fit] | –
CC(=O)NC(=S)Nc1ccc(NC(=O)c2cccs2)cc1 | -11.2 | 32.6 µM [falling, single point] | –
CCOC(=O)Nc1ccc2nc(Sc3ccc(Cl)cc3)sc2c1 | – | 2.31 µM [rising, partial curve] | –
COc1cc(NC(=S)Nc2ncccc2C)cc(OC)c1OC | -19.9 | 1.03 µM [falling, full curve] | 1.16 µM [falling, full curve]
c1cc2c(nn1)CCc1nonc1-2 | -56.5 | 20.6 µM [falling, partial curve] | 29.1 µM [falling, single point]
CCOC(=O)C(O)(C1C(=O)CC(C)(C)CC1=O)C(F)(F)F (configuration not stated) | -20 | 1.64 µM [falling, full curve] | –
COc1cccc(/C=C/C(=O)OCC(=O)NCCNC(=O)COC(=O)/C=C/c2cccc(OC)c2)c1 | -35.3 | – | 29.1 µM [falling, single point]
Cc1ccc(C(NC(=O)N2CCOCC2)=C(Cl)Cl)cc1F | -37.4 | – | 20.6 µM [falling, single point]
Cn1c(C(=O)N[C@@H](Cc2ccccc2)C(=O)NCCC(=O)O)cc2cc(Cl)ccc21 | – | 29.1 µM [rising, single point] | 6.51 µM [rising, single point]
CC(=O)c1ccc(N2CCN(C(=O)c3c(-c4ccccc4Cl)noc3C)CC2)cc1 | 16.5 | 6.51 µM [rising, full curve, poor fit] | –
CN(C)S(=O)(=O)c1ccc(Cl)c(NC(=O)CN2CCCC2)c1 | 66.7 | 29.1 µM [rising, single point] | 29.1 µM [rising, single point]
CCOC(=O)N1CCN(C(=O)COC(=O)COc2c(C)cc(C)cc2C)CC1 | -2.94 | 23.1 µM [rising, single point] | –
COc1ccccc1CNC(=O)Cn1nc(C(F)(F)F)cc1C | -13.1 | – | –
COc1cccc(CN2CC(C(=O)NCCc3ccc(C)o3)CCC2=O)c1 (configuration not stated) | -13.9 | 2.91 µM [rising, full curve] | –
CSc1nc2sc3c(c2c(=O)[nH]1)CCCC3 | 12.1 | – | –
Cc1[nH]n(C(N)=S)c(=O)c1N=Nc1cccc(Cl)c1 | -47 | 11.6 µM [falling, partial curve] | 14.6 µM [falling, partial curve]
Cc1ccc(C)c(OCc2nc3ccccc3[nH]2)c1 | 19.9 | – | –
CC(C)N1C(=O)S/C(=C/c2ccccc2OCc2ccc(C(=O)O)cc2)C1=O | 6.49 | – | –

Compound | cell number change [%] | AC50 [1] | AC50 [2]
COc1ccc(C(=O)NC2CCCc3c2cnn3-c2cc(F)cc(F)c2)c(OC)n1 (configuration not stated) | -38.8 | 6.51 µM [falling, partial curve, poor fit] | 3.26 µM [falling, partial curve, poor fit]
COc1ccccc1N1CCN(C(=O)c2cc(=O)c3cc(C)ccc3o2)CC1 | 16.7 | 0.461 µM [rising, partial curve] | –
O=C(Nc1ncccc1O)c1ccc(S(=O)(=O)N2CCCCCC2)cc1 | – | – | 0.291 µM [rising, full curve, poor fit]
COc1ccc(NC(=S)N(Cc2ccc(C(=O)O)cc2)Cc2ccc(OC)c(OC)c2)cc1 | 20.7 | 0.00517 µM [falling, full curve, poor fit] | 0.0058 µM [falling, full curve, poor fit]
CCc1sc(C(=O)NCc2ccco2)cc1C | – | 23.1 µM [rising, partial curve] | –
Cc1c(Cc2ccccc2)c(=O)oc2c(C)c(OCC(=O)NCc3ccccn3)ccc12 | 3.88 | 0.0731 µM [falling, full curve, poor fit] | –
COCCn1c(-c2ccco2)csc1=Nc1cccnc1 | 31.2 | – | 0.461 µM [rising, full curve]
Cc1ccc(NC(=O)COC(=O)c2cccnc2Cl)cc1S(=O)(=O)N1CCCCC1 | -0.704 | 0.82 µM [falling, single point] | –
NC(=O)c1sc2nccc(Nc3ccccc3)c2c1N | -4.52 | – | –
CCNC(=S)N/N=C/c1ccc(-c2ccccc2)o1 | 14.6 | 29.1 µM [rising, single point] | –
CCN1/C(=C/C=C/c2oc3ccc4ccccc4c3[n+]2CC)Oc2ccc3ccccc3c21 | -46.7 | 0.58 µM [falling, full curve] | 20.6 µM [falling, partial curve, poor fit]
O=C(NC(=S)N1CCCc2ccccc21)c1ccc([N+](=O)[O-])cc1 | -112 | – | 29.1 µM [falling, single point]
Cc1ccc(NS(=O)(=O)c2cccc(C(=O)NN3CCOCC3)c2)cc1 | 1.91 | 3.26 µM [rising, single point] | –
Cc1ccc(-c2nn[nH]n2)o1 | 0.561 | – | –
CC(=O)c1cccc(NC(=O)CN(c2ccccc2F)S(C)(=O)=O)c1 | 72.9 | 7.31 µM [falling, single point] | 16.4 µM [rising, partial curve]
O=C(COc1ccc(F)cc1)N1CCCc2ccccc21 | 0.895 | 3.66 µM [rising, single point] | –
O=C(CCCc1c[nH]c2ccccc12)Nc1ccc2ccccc2c1 | -11.5 | 18.4 µM [falling, single point] | –
O=C(NCCc1csc(-c2cccnc2)n1)c1c(F)cccc1F | 16.8 | 2.91 µM [rising, partial curve, poor fit] | –
CCn1nc(NC(=O)c2ccccn2)c2cc3cc(C)ccc3nc21 | 3.3 | 0.13 µM [rising, full curve] | –
Cc1ccc(S(=O)(=O)N2CCOCC2)cc1NC(=O)COC(=O)COc1cccc2c1OC(C)(C)C2 | -0.56 | 1.64 µM [falling, partial curve] | 2.06 µM [falling, partial curve]

Fetched by structure from the list above, 4 records:
Compound | cell number change [%] | AC50 [1] | AC50 [2]
O=C(NCCc1csc(-c2cccnc2)n1)c1c(F)cccc1F | 16.8 | 2.91 µM [rising, partial curve, poor fit] | –
O=C(Nc1ncccc1O)c1ccc(S(=O)(=O)N2CCCCCC2)cc1 | – | – | 0.291 µM [rising, full curve, poor fit]
Cc1ccc(S(=O)(=O)N2CCOCC2)cc1NC(=O)COC(=O)COc1cccc2c1OC(C)(C)C2 | -0.56 | 1.64 µM [falling, partial curve] | 2.06 µM [falling, partial curve]
CCN1/C(=C/C=C/c2oc3ccc4ccccc4c3[n+]2CC)Oc2ccc3ccccc3c21 | -46.7 | 0.58 µM [falling, full curve] | 20.6 µM [falling, partial curve, poor fit]
